No constants are given. Whether binding was seen depends on the method and setting. In cells and extracts the contact can be indirect. Where a sequence is shown, tags or fusion partners need not be part of it.
Molecular target: MyD88-ΔDD (human)
Assay: co-IP; HEK293T cells co-transfected with tagged plasmids; IP buffer 1% NP-40, 150 mM NaCl, 10 mM Tris-HCl pH 7.4, 1 mM EDTA; antibody with Protein A/G PLUS Agarose overnight; immunoblot

B1: Flag-OTUD5 (WT) (enzyme, UniProt Q96G74 1-571)
chain: MTILPKKKPPPPDADPANEPPPPGPMPPAPRRGGGVGVGGGGTGVGGGDRDRDSGVVGARPRASPPPQGPLPGPPGALHRWALAVPPGAVAGPRPQQASPPPCGGPGGPGGGPGDALGAAAAGVGAAGVVVGVGGAVGVGGCCSGPGHSKRRRQAPGVGAVGGGSPEREEVGAGYNSEDEYEAAAARIEAMDPATVEQQEHWFEKALRDKKGFIIKQMKEDGACLFRAVADQVYGDQDMHEVVRKHCMDYLMKNADYFSNYVTEDFTTYINRKRKNNCHGNHIEMQAMAEMYNRPVEVYQYSTGTSAVEPINTFHGIHQNEDEPIRVSYHRNIHYNSVVNPNKATIGVGLGLPSFKPGFAEQSLMKNAIKTSEESWIEQQMLEDKKRATDWEATNEAIEEQVARESYLQWLRDQEKQARQVRGPSQPRKASATCSSATAAASSGLEEWTSRSPRQRSSASSPEHPELHAELGMKPPSPGTVLALAKPPSPCAPGTSSQFSAGADRATSPLVSLYPALECRALIQQMSPSAFGLNDWDDDEILASVLAVSQQEYLDSMKKNKVHRDPPPDKS
  binding: no binding

— article PMC11164869
